Measured values as given in article PMC12902025.

Molecular target: T1, HSPA13 (UniProt P48723)
T1 sequence: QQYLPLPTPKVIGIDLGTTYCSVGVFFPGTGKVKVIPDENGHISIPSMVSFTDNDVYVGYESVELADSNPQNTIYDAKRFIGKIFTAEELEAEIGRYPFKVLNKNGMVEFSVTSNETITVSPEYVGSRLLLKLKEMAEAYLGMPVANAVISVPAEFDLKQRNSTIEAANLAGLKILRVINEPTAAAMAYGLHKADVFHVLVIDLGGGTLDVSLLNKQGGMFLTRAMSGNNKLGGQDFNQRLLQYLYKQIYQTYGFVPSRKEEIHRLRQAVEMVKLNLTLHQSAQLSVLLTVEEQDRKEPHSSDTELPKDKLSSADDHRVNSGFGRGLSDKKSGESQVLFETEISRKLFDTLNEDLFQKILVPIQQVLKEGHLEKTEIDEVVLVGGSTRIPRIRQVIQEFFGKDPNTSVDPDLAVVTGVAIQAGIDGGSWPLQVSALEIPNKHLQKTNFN
Experiment: co-IP; HSPA13 immunoprecipitation on isolated supermere fractions (intact particles); depletion of the other proteins from the supermere fraction relative to isotype control

binding: binds
Substance: DDR1

Results are given in words; binding and its absence hold for the method and conditions named. In cells and extracts the contact can be indirect. Binding can be weak; no strength is given.
